The target of one assay is HA-ASC (human) (UniProt Q9ULZ3). In words: co-immunoprecipitation from HEK293T cells, immunoblot. For orientation: In western blotting, separated proteins are transferred to a membrane and probed.
Another assay addresses Myc-Caspase-1 (UniProt P29466). In words: co-immunoprecipitation from HEK293T cells.
Another assay addresses Flag-Cardiak (UniProt O43353). In words: co-immunoprecipitation from HEK293T cells.
Another assay deals with T1, Myc-Card10 (UniProt Q9BWT7).
T1 sequence (looked up): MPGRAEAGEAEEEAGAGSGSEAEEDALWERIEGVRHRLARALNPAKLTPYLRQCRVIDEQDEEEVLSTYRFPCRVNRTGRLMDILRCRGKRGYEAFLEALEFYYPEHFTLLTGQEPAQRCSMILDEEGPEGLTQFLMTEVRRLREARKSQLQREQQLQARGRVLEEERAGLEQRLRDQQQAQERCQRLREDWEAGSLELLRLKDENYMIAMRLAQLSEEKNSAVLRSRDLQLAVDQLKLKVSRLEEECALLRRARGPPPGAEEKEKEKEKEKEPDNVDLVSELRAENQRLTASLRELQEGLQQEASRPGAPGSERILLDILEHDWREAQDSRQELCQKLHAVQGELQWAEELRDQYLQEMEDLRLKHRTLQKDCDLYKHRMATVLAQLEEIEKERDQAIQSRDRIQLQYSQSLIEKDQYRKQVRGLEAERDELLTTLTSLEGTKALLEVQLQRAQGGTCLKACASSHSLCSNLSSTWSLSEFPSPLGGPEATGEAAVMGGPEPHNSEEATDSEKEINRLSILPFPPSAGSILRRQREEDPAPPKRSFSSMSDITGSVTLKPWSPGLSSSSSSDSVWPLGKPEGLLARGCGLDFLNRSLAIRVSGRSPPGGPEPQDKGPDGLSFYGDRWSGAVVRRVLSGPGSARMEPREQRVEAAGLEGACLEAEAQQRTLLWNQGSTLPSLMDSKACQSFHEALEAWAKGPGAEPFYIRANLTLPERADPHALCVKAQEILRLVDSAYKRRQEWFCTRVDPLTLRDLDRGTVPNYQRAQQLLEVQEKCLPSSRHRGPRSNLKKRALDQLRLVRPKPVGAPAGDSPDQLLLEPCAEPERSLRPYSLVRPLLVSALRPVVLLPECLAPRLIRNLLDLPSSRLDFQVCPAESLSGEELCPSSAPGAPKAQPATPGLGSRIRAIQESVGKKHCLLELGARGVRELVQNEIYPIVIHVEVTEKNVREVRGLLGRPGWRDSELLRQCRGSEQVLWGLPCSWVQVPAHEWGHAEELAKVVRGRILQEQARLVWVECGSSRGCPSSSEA
In words: co-immunoprecipitation from HEK293T cells.

Protein sequences, listed by entry. Tags and fused reporters are not part of them.
UniProt Q9ULZ3: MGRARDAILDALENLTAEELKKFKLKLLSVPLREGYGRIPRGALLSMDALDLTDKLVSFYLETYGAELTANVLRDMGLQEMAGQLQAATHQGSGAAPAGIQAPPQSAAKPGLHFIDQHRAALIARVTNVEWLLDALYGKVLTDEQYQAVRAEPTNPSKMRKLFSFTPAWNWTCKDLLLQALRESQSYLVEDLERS
UniProt P29466: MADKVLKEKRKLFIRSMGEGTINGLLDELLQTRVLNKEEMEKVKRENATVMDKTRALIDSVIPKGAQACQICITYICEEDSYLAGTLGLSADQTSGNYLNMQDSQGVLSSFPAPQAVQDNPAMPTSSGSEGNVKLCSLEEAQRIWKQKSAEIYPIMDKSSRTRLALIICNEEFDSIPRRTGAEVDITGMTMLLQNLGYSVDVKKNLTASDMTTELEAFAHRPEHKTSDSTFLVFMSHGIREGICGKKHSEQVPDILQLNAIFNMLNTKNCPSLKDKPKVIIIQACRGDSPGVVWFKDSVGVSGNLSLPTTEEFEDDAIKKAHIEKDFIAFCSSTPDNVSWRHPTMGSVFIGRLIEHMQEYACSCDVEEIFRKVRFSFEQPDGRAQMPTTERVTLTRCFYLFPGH
UniProt O43353: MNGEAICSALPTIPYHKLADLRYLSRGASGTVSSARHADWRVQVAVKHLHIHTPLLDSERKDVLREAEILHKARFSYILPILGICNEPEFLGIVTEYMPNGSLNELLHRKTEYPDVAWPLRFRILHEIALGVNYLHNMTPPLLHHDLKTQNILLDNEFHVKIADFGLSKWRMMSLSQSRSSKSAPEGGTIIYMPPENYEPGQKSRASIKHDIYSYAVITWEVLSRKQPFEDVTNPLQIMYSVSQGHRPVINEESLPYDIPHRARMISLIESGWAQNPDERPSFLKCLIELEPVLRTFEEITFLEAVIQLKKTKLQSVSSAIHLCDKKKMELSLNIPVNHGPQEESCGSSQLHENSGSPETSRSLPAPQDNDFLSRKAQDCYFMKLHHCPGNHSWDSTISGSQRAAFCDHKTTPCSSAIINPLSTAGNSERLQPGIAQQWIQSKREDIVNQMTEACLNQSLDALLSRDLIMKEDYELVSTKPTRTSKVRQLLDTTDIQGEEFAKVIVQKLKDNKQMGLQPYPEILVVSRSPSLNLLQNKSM

Another assay deals with T2, Flag-Nod1 (UniProt Q9Y239).
T2 sequence (looked up): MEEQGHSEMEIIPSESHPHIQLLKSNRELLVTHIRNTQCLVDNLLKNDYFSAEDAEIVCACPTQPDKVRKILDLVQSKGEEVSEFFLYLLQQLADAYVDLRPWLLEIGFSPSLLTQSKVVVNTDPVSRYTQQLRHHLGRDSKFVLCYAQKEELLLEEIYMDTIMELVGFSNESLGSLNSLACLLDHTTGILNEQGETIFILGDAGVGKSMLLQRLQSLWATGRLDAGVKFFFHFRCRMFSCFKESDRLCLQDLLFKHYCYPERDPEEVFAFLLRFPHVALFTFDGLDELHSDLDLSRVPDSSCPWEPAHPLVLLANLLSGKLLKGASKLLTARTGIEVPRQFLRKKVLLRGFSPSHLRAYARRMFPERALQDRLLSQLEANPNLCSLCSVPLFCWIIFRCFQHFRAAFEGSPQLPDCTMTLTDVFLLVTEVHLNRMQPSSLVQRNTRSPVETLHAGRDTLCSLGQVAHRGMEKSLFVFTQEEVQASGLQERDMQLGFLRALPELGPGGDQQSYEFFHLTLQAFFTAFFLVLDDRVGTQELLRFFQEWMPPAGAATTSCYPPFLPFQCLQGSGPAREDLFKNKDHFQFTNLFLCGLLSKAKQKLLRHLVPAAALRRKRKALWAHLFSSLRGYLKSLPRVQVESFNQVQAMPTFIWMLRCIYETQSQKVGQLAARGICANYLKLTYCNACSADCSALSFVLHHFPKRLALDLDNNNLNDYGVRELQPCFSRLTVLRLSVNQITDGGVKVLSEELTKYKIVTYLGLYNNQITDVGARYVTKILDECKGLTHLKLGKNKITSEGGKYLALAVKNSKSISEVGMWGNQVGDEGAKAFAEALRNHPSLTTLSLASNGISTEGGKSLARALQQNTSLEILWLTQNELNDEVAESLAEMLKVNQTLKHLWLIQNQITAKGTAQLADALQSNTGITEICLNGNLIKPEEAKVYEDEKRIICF
In words: co-immunoprecipitation from HEK293T cells.

No constants are given. Whether binding was seen depends on the method and setting. Binding seen in cells or lysates may run through a third protein. Some results given as binding are weak or reduced against the parent protein; the word gives no strength. For some assays here: Where a sequence is shown, tags or fusion partners need not be part of it.

On to “Flag-Cardiak (from UniProt O43353 1-540) (enzyme)”, for which, in the assay with HA-ASC (human), the binding result is on record as “binds”. Take HA-ASC (from UniProt Q9ULZ3 1-195): the binding result with Myc-Caspase-1, with Flag-Cardiak, with Myc-Card10 and with Flag-Nod1 was “binds” in each case. For the molecule “Myc-Caspase-1 (from UniProt P29466 1-404) (enzyme)”, in the assay with HA-ASC (human), the binding entry is listed as “binds”.

B1: Flag-Nod1 (protein, UniProt Q9Y239 1-953, looked up, not shown: small tags and cut ends)
chain: T2 sequence (looked up)
As to B1, the binding entry in the assay with HA-ASC (human) was “binds”.

B2: Myc-Card10 (protein, UniProt Q9BWT7 1-1032, looked up, not shown: small tags and cut ends)
chain: T1 sequence (looked up)
Regarding B2, in the assay with HA-ASC (human), the binding entry was “binds”.

The values are drawn from US20030077699A1.
